# Assay: In vitro intestinal digestion of carrier oil in fasted media (pH 6.5): solubilisation of CBD
# Format: in vitro ADME
# Protocol: FIG. 1—Solubilisation of CBD during in vitro intestinal digestion of carrier oil (MCT, LCT/LCFA, or a mixture of MCT:LCT/LCFA) in fasted media (pH 6.5). Total lipid was 110 mg (100 mg carrier oil+10 mg CBD). Data are mean±SD, n=3. A. CBD concentration (mg) during digestion in MCT. B. CBD concentration (mg) during digestion in LCT/LCFA (Maisine CC). C. CBD concentration (mg) during digestion in a mixture of MCT:LCT/LCFA (Maisine CC)
# FIG. 2—Solubilisation of CBD in the presence of TPM during in vitro gastro-intestinal digestion of carrier oil (MCT, LCT/LCFA, or a mixture of MCT:LCT/LCFA) in fasted media. Total lipid was 110 mg (80-90 mg carrier oil+10 mg CBD+10-20 mg TPM). Data are mean±SD, n=3. A. CBD concentration (mg) during digestion in MCT with TPM. B. CBD concentration (mg) during digestion in LCT/LCFA (Maisine CC) with TPM. C. CBD concentration (mg) during digestion in a mixture of MCT:LCT/LCFA (Maisine CC) with TPM.
# FIG. 3—Solubilisation of CBD in the presence of TPM during in vitro digestion of carrier oil (MCT, LCT/LCFA, or a mixture of MCT:LCT/LCFA) in fasted media (pH 6.5). Total lipid was 110 mg (80-90 mg carrier oil+10 mg CBD+10-20 mg TPM). Data are mean±SD, n=3. A. CBD concentration (mg) during digestion in 3:1 MCT:LCT/LCFA, with TPM. B. CBD concentration (mg) during digestion in 1:1 MCT:LCT/LCFA, with TPM. C. CBD concentration (mg) during digestion in 1:3 MCT:LCT/LCFA, with TPM. […]
smiles,measurement,setting,value
"C=C(C)[C@@H]1CCC(C)=C[C@H]1c1c(O)cc(CCCCC)cc1O [CBD, cannabidiol]",effect of TPM addition on in-vitro solubility of CBD during digestion,TPM added to MCT carrier oil or to LCT/LCFA carrier oil,did not increase
same,effect of TPM addition on aqueous solubility of CBD during digestion,TPM added to mixture of MCT and LCT/LCFA,increased
